Laboratory results from article doi:10.1101/2021.07.13.452210.
No constants are given. Whether binding was seen depends on the method and setting. For some assays here: Binding seen in cells or lysates may run through a third protein. Some binding calls cover weakened binding; strength is not graded here. Tags and fused reporters may be left off the sequences shown. One block for each binder: values may come before it.

Columns and labels:
MNR-GFP = target: T1, MNR-GFP (UniProt Q2KHM9); experiment: microtubule recruitment
T1 sequence: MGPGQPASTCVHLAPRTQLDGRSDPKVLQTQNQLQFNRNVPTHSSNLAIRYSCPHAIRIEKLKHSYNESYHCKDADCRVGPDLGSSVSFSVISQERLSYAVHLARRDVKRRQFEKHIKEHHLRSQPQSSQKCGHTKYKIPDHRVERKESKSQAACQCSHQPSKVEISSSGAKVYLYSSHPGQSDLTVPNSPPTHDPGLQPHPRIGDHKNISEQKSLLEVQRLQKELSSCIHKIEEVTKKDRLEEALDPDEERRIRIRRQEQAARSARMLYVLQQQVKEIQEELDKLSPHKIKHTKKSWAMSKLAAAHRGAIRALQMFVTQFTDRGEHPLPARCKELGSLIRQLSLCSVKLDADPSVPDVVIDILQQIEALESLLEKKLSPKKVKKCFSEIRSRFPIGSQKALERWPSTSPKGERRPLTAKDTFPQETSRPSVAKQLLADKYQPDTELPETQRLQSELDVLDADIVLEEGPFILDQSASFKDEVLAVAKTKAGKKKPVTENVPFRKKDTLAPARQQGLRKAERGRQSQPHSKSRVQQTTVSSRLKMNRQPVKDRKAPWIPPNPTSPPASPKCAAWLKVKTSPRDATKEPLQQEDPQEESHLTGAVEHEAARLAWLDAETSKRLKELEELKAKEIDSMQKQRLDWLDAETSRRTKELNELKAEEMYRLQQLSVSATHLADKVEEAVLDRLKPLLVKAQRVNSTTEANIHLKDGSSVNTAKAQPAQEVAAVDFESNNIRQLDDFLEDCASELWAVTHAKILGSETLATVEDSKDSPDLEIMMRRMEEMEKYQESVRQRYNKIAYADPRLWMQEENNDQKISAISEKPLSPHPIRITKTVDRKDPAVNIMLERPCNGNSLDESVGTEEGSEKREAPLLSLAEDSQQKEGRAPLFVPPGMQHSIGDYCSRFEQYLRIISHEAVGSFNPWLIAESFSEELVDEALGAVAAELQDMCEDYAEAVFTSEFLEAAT

[1] = target: T2, GFP-tagged mouse FOPNL (mouse) (UniProt Q9CZS3); experiment: co-IP
T2 sequence: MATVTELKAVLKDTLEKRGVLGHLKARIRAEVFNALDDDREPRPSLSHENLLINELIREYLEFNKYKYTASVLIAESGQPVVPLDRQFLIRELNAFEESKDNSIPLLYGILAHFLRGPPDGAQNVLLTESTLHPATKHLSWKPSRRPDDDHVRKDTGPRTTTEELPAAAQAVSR

B2: endogenous CEP90/PIBF1 (protein, UniProt Q8WXW3 1-757)
chain: MSRKISKESKKVNISSSLESEDISLETTVPTDDISSSEEREGKVRITRQLIERKELLHNIQLLKIELSQKTMMIDNLKVDYLTKIEELEEKLNDALHQKQLLTLRLDNQLAFQQKDASKYQELMKQEMETILLRQKQLEETNLQLREKAGDVRRNLRDFELTEEQYIKLKAFPEDQLSIPEYVSVRFYELVNPLRKEICELQVKKNILAEELSTNKNQLKQLTETYEEDRKNYSEVQIRCQRLALELADTKQLIQQGDYRQENYDKVKSERDALEQEVIELRRKHEILEASHMIQTKERSELSKEVVTLEQTVTLLQKDKEYLNRQNMELSVRCAHEEDRLERLQAQLEESKKAREEMYEKYVASRDHYKTEYENKLHDELEQIRLKTNQEIDQLRNASREMYERENRNLREARDNAVAEKERAVMAEKDALEKHDQLLDRYRELQLSTESKVTEFLHQSKLKSFESERVQLLQEETARNLTQCQLECEKYQKKLEVLTKEFYSLQASSEKRITELQAQNSEHQARLDIYEKLEKELDEIIMQTAEIENEDEAERVLFSYGYGANVPTTAKRRLKQSVHLARRVLQLEKQNSLILKDLEHRKDQVTQLSQELDRANSLLNQTQQPYRYLIESVRQRDSKIDSLTESIAQLEKDVSNLNKEKSALLQTKNQMALDLEQLLNHREELAAMKQILVKMHSKHSENSLLLTKTEPKHVTENQKSKTLNVPKEHEDNIFTPKPTLFTKKEAPEWSKKQKMKT
binding [1]: binds

B4: OFD1-mCherry (protein, UniProt O75665 1-1012)
chain: MMAQSNMFTVADVLSQDELRKKLYQTFKDRGILDTLKTQLRNQLIHELMHPVLSGELQPRSISVEGSSLLIGASNSLVADHLQRCGYEYSLSVFFPESGLAKEKVFTMQDLLQLIKINPTSSLYKSLVSGSDKENQKGFLMHFLKELAEYHQAKESCNMETQTSSTFNRDSLAEKLQLIDDQFADAYPQRIKFESLEIKLNEYKREIEEQLRAEMCQKLKFFKDTEIAKIKMEAKKKYEKELTMFQNDFEKACQAKSEALVLREKSTLERIHKHQEIETKEIYAQRQLLLKDMDLLRGREAELKQRVEAFELNQKLQEEKHKSITEALRRQEQNIKSFEETYDRKLKNELLKYQLELKDDYIIRTNRLIEDERKNKEKAVHLQEELIAINSKKEELNQSVNRVKELELELESVKAQSLAITKQNHMLNEKVKEMSDYSLLKEEKLELLAQNKLLKQQLEESRNENLRLLNRLAQPAPELAVFQKELRKAEKAIVVEHEEFESCRQALHKQLQDEIEHSAQLKAQILGYKASVKSLTTQVADLKLQLKQTQTALENEVYCNPKQSVIDRSVNGLINGNVVPCNGEISGDFLNNPFKQENVLARMVASRITNYPTAWVEGSSPDSDLEFVANTKARVKELQQEAERLEKAFRSYHRRVIKNSAKSPLAAKSPPSLHLLEAFKNITSSSPERHIFGEDRVVSEQPQVGTLEERNDVVEALTGSAASRLRGGTSSRRLSSTPLPKAKRSLESEMYLEGLGRSHIASPSPCPDRMPLPSPTESRHSLSIPPVSSPPEQKVGLYRRQTELQDKSEFSDVDKLAFKDNEEFESSFESAGNMPRQLEMGGLSPAGDMSHVDAAAAAVPLSYQHPSVDQKQIEEQKEEEKIREQQVKERRQREERRQSNLQEVLERERRELEKLYQERKMIEESLKIKIKKELEMENELEMSNQEIKDKSAHSENPLEKYMKIIQQEQDQESADKSSKKMVQEGSLVDTLQSSDKVESLTGFSHEELDDSW
binding (MNR-GFP): binds

B5: endogenous OFD1 (protein, UniProt O75665 1-1012)
chain: B4 chain
binding [1]: binds

Second part, the binder after the results:

binding (MNR-GFP): binds
B1: overexpressed CEP90 (protein, UniProt Q8WXW3 1-757)
chain: B2 chain

binding (MNR-GFP): binds
B3: myc-FOPNL (protein, UniProt Q96NB1 1-174)
chain: MATVAELKAVLKDTLEKKGVLGHLKARIRAEVFNALDDDREPRPSLSHENLLINELIREYLEFNKYKYTASVLIAESGQPVVPLDRQFLIHELNAFEESKDNTIPLLYGILAHFLRGTKDGIQNAFLKGPSLQPSDPSLGRQPSRRKPMDDHLRKEEQKSTNIEDLHVSQAVNR
